# Reference: patent publication US20220112288A1
# Results are given in words; binding and its absence hold for the method and conditions named.
# B1: CD8B319 (antibody, human IgG1, kappa, V domains shown)
# VH: QVQLKESGPELKKPGETVKISCKASGYSFTAYYMHWVKQSPEKSLEWIGEINPSAGGTTYNQKFKAKATLTVDKSSSTAFIQLKSLTSEDSAVYYCARWTNPFDYWGQGTTLTVSS
# VL: DIVMTQSQKFMSTTVGDRVSITCKASQNVGTAVAWYQQKPGQSPKLLIYSASYRYTGVPDRFTGSGSGTHFTLTISNIQSEDLADYFCQQYNNYLTFGSGTKLEIKR
# B2: CD8B310 (antibody, human IgG1, kappa, V domains shown)
# VH: QVQLKESGPGLVAPSQSLSITCTVSGFSLTNYAVHWVRQSPGKGLEWLGVIWTDGSTDYNAGFISRLSISKDNSKSQVFFKMNSLQADDTAIYYCARNNGYFPAFFAYWGQGTTVTVSS
# VL: DVLMTQTPLSLPVSLGDQASISCRSSQTIVHSNGNTYLEWYLQKPGQSPKLLMYKVSNRFSGVPDRFGGSGSGTDFTLKISRVEAEDLGVYYCFQGSHAPFTFGSGTKLEIKR
# Molecular target: Human CD8αα fused to human Fc (human)
# Test: SPR (Biacore 8K), mAb captured, single cycle kinetics
binder,measurement,value
B1,binding,no binding (tested: 100 nM (highest concentration tested))
B2,binding,no binding (tested: 100 nM (highest concentration tested))
